Source: PMC2693666
No constants are given. Whether binding was seen depends on the method and setting. Some entries that bind do so weakly or less than the wild type. One block for each substance: values may come before it.

By UniProt entry, the sequences of proteins in these tests, tags left out. Residues count along the entry.
UniProt P02787, residues 20-698: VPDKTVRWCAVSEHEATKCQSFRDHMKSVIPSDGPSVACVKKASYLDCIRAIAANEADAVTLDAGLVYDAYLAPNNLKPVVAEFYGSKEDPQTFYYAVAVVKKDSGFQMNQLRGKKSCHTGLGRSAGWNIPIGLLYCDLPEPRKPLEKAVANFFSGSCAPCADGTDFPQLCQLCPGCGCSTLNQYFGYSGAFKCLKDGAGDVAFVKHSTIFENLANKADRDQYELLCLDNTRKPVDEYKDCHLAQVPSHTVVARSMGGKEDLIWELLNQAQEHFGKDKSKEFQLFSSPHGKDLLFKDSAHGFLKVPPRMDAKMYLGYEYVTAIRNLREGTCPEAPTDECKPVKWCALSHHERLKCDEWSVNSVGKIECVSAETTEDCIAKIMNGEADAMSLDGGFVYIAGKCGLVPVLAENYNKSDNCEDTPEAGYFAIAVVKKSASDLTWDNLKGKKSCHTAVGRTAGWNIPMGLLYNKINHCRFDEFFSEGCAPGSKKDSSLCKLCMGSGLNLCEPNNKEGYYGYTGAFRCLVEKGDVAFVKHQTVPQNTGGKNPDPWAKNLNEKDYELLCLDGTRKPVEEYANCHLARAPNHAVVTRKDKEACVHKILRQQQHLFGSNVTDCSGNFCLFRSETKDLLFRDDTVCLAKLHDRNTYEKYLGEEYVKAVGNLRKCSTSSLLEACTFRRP
UniProt P07724, residues 25-608: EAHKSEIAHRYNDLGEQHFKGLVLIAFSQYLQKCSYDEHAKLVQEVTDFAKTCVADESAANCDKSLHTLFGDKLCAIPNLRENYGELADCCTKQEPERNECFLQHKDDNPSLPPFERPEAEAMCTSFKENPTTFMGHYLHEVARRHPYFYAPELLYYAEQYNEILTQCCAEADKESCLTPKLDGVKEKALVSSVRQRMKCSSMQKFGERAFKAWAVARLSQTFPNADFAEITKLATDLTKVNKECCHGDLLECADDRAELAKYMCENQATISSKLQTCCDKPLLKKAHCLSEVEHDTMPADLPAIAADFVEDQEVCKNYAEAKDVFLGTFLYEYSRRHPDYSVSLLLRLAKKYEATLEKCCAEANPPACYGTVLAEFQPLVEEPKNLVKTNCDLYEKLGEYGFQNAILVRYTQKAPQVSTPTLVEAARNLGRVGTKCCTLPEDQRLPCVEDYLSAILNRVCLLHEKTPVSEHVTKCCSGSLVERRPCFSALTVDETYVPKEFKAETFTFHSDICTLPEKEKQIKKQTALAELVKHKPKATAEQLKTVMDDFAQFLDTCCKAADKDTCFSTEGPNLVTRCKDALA
UniProt Q9QUG3, residues 26-155: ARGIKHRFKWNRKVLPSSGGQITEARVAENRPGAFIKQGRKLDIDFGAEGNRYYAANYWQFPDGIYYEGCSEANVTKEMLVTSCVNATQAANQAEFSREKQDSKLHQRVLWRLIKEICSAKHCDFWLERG

Key:
[1] = molecular target: T1, alpha-2-macroglobulin (α2M), activated (fast) form (UniProt P01023); test: ELISA
T1 sequence (chain, activated form (fast)): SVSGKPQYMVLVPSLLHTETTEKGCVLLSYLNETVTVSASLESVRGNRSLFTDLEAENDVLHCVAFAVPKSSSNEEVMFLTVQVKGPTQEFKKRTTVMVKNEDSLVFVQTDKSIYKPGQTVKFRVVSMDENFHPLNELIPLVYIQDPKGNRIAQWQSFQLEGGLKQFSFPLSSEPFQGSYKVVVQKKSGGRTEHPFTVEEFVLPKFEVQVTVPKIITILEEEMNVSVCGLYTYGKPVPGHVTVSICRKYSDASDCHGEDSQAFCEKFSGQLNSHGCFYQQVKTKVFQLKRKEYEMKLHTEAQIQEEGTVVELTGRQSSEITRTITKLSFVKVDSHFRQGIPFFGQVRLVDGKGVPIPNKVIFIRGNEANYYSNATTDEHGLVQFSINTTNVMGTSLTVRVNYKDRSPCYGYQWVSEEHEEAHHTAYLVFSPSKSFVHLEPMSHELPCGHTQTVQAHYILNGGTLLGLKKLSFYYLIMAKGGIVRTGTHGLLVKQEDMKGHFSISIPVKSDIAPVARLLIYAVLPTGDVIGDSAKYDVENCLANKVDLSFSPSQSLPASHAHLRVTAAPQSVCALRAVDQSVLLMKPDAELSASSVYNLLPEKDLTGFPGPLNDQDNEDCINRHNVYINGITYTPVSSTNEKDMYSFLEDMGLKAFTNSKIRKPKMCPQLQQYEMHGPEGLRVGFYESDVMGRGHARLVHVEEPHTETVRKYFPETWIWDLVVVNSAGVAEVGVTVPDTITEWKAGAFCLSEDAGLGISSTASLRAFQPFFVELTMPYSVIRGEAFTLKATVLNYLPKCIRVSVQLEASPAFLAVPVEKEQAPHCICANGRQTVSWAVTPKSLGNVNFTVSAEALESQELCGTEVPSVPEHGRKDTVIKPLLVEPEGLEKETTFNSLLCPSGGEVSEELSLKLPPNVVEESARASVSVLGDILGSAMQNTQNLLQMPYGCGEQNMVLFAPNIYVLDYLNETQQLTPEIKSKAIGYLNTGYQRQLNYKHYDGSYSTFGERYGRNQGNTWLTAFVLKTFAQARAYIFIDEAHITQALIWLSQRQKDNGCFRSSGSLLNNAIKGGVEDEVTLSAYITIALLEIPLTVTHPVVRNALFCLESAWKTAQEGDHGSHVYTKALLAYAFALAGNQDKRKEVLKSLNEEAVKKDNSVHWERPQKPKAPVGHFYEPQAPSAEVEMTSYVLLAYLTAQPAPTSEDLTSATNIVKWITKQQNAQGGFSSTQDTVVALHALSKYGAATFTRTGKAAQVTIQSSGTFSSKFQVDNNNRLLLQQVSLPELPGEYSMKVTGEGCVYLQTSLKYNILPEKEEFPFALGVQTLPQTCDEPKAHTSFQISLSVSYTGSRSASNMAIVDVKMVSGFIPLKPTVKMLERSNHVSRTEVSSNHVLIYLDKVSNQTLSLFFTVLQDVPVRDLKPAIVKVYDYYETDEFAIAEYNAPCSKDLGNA

[2] = molecular target: T2, alpha-2-macroglobulin (α2M), native form (UniProt P01023); test: ELISA
T2 sequence: T1 sequence (chain, activated form (fast))

[3] = molecular target: T3, rat alpha-1-inhibitor-3 (α1I3), methylamine-activated (FAST) form (rat) (UniProt P14046); test: ELISA; only the target purified
T3 sequence (chain, methylamine-activated): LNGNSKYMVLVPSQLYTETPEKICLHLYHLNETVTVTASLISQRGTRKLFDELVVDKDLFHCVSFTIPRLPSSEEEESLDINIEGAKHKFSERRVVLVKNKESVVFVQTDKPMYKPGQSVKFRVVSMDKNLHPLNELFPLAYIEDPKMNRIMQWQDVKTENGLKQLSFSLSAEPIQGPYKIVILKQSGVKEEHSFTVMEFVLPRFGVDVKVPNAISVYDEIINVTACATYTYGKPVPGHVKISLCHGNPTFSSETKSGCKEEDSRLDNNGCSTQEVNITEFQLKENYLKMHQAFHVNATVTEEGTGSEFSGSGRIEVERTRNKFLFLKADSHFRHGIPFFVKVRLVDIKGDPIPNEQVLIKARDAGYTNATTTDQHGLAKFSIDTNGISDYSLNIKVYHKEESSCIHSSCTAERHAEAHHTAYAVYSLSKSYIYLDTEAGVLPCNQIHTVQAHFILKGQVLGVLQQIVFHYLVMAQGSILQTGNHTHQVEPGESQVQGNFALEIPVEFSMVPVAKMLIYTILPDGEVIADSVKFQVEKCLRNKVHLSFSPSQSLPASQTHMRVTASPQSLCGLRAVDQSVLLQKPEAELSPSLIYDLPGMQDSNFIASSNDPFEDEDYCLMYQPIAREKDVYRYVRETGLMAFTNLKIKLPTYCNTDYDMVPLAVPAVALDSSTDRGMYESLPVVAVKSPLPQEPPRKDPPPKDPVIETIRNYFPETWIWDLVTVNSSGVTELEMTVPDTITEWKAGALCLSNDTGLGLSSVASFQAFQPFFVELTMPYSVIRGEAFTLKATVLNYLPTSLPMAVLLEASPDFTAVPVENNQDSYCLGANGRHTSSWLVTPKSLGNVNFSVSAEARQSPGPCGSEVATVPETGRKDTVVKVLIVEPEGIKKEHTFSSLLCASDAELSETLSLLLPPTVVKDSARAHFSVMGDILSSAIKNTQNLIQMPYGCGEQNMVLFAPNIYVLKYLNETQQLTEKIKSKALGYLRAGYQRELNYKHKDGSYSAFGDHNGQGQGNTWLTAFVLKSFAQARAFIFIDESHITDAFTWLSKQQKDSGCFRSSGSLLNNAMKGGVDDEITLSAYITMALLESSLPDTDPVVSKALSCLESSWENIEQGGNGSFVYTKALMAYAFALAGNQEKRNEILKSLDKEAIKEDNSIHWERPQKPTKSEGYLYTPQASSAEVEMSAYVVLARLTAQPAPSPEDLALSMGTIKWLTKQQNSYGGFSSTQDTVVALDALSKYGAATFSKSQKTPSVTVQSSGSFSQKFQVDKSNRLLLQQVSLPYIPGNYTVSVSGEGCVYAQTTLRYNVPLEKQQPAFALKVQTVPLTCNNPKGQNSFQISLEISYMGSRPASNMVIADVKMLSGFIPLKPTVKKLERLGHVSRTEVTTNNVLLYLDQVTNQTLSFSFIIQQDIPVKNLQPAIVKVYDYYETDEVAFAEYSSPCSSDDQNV

[4] = molecular target: T4, rat alpha-1-inhibitor-3 (α1I3), native form, purified (rat) (UniProt P14046); test: ELISA; only the target purified
T4 sequence: T3 sequence (chain, methylamine-activated)

[5] = molecular target: T5, rat alpha-1-inhibitor-3 (α1I3), from rat cerebellum (rat (endogenous in Sprague-Dawley rat cerebellum)) (UniProt P14046); test: far-Western, overlay or dot blot
T5 sequence: T3 sequence (chain, methylamine-activated)

[6] = molecular target: apo-transferrin (UniProt P02787); test: ELISA; specificity controls with recDpl, three independent experiments, data not shown; both purified
[7] = molecular target: mouse albumin (mouse) (UniProt P07724); test: as above
[8] = molecular target: T1, alpha-2-macroglobulin (α2M), activated (fast) form; test: ELISA; equimolar α1I3 and α2M, native or activated, coated onto plates and incubated with recDpl; also titration of coated α2M from 25 ng to 1.6 µg/well with recDpl 1.0 µg/well; rabbit polyclonal anti-MoDpl, room temperature; both purified
[9] = molecular target: T2, alpha-2-macroglobulin (α2M), native form; test: as above
[10] = molecular target: T3, rat alpha-1-inhibitor-3 (α1I3), methylamine-activated (FAST) form (rat); test: as above
[11] = molecular target: T4, rat alpha-1-inhibitor-3 (α1I3), native form, purified (rat); test: as above

Substance: PrP^C as tested against α2M (construct not told) (from UniProt P04925 23-230)
binding [1]: no binding
binding [2]: no binding

binding [3]: binds
binding [4]: binds
binding [5]: binds
Substance: MoDpl-Fc (from UniProt Q9QUG3 26-155) (Fc fusion)

binding [6]: no binding
binding [7]: no binding
binding [8]: binds
binding [9]: binds
binding [10]: binds
binding [11]: binds
Substance: recMoDpl(26–155) (from UniProt Q9QUG3 26-155) (domain or fragment)
